PubChem BioAssay AID1259308 – NCATS, 2017
Shown is one part, drawn at random, of about 59,000 reagents. About 1,510 of them (2.6%) were called active. 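Calls use total luciferase alone and ignore viability, so some active siRNAs may act by altering cell number.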 Unmarked entries are inactive. Reagents against one gene are numbered here.

Assay: 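Candidate targets for better recombinant protein yield in mammalian cells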 (primary screen)
Cell system: human HEK293 embryonic kidney cells stably expressing firefly luciferase (HEK-CMV-Luc2-Hygro)
Reagents: single siRNA against human genes, 0.8 pmol siRNA per well
Time to read-out: 72 h
Measurement: 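Reporter luminescence and viable-cell signal on separate replicate plates, given as percent of non-targeting control and median/MAD z-scores, plus per-cell luciferase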
Scale: total luciferase, z-score and total luciferase, % of control: higher = more reporter protein produced; luciferase per cell, z-score: higher = more reporter output per viable cell; viable cells, % of control: higher = more viable cells
Rule for the call: 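An siRNA counts as active if its total luciferase robust z-score exceeds 3; genes with two or more such siRNAs out of three were retested with fresh siRNAs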
Calls: active = raised luciferase; inactive = no rise

| gene | siRNA no. | total luciferase, z-score | total luciferase, % of control | luciferase per cell, z-score | viable cells, % of control |
| --- | --- | --- | --- | --- | --- |
| TRAPPC5 (trafficking protein particle complex subunit 5) | 1 | 0.288 | 87.6 | 0.0617 | 96.3 |
| TRAPPC5 (trafficking protein particle complex subunit 5) | 2 | 1.57 | 113 | 0.461 | 112 |
| TRAPPC5 (trafficking protein particle complex subunit 5) | 3 | -0.908 | 63.8 | -1.61 | 109 |
| TMED6 (transmembrane p24 trafficking protein 6) | 1 | 0.396 | 89.8 | 0.056 | 98.8 |
| TMED6 (transmembrane p24 trafficking protein 6) | 2 | 0.383 | 89.5 | 0.572 | 86 |
| TMED6 (transmembrane p24 trafficking protein 6) | 3 | 0.453 | 90.9 | -0.22 | 108 |
| FAM20C (FAM20C golgi associated secretory pathway kinase) | 1 | 0.0916 | 83.7 | -0.319 | 102 |
| FAM20C (FAM20C golgi associated secretory pathway kinase) | 2 | 1.56 | 113 | 0.473 | 111 |
| FAM20C (FAM20C golgi associated secretory pathway kinase) | 3 | -1.7 | 48.1 | -1.87 | 88 |
| TRAF3IP3 (TRAF3 interacting protein 3) | 1 | -0.189 | 78.1 | -0.502 | 99.6 |
| TRAF3IP3 (TRAF3 interacting protein 3) | 2 | 2.66 | 135 | 2.56 | 76.9 |
| TRAF3IP3 (TRAF3 interacting protein 3) | 3 | -0.594 | 70.1 | -0.265 | 84 |
| PTGES (prostaglandin E synthase) | 1 | 1.86 | 119 | 1.92 | 80.1 |
| PTGES (prostaglandin E synthase) | 2 | 0.483 | 91.5 | 0.543 | 88.6 |
| PTGES (prostaglandin E synthase) | 3 | -0.176 | 78.4 | -0.292 | 94.6 |
| ECE2 (endothelin converting enzyme 2) | 1 | -0.517 | 71.6 | -0.724 | 96.8 |
| ECE2 (endothelin converting enzyme 2) | 2 | -2.21 | 38 | -1.87 | 69.5 |
| ECE2 (endothelin converting enzyme 2) | 3 | -0.794 | 66.1 | -1.75 | 117 |
| ECE2 (endothelin converting enzyme 2) | 4 | 2.32 | 128 | 1.87 | 87.3 |
| ECE2 (endothelin converting enzyme 2) | 5 | -0.297 | 76 | -0.263 | 91 |
| ECE2 (endothelin converting enzyme 2) | 6 | -2.71 | 28 | -3.72 | 83.4 |
| USF1 (upstream transcription factor 1) | 1 | -0.929 | 63.4 | -0.897 | 89.7 |
| USF1 (upstream transcription factor 1) | 2 | -1.04 | 61.2 | -1.47 | 101 |
| USF1 (upstream transcription factor 1) | 3 | 0.931 | 100 | 1.53 | 74.9 |
| SGPP2 (sphingosine-1-phosphate phosphatase 2) | 1 | 0.0214 | 82.3 | -0.359 | 101 |
| SGPP2 (sphingosine-1-phosphate phosphatase 2) | 2 | -0.0239 | 81.4 | 0.482 | 80.1 |
| SGPP2 (sphingosine-1-phosphate phosphatase 2) | 3 | 0.411 | 90.1 | 0.14 | 97 |
| DMTF1 (cyclin D binding myb like transcription factor 1) | 1 | 3.32 (active) | 148 | 2.41 | 87.6 |
| DMTF1 (cyclin D binding myb like transcription factor 1) | 2 | -0.706 | 67.8 | -0.944 | 97.2 |
| DMTF1 (cyclin D binding myb like transcription factor 1) | 3 | 2.27 | 127 | 1.33 | 99.9 |
| INTS11 (integrator complex subunit 11) | 1 | 2.14 | 124 | 1.49 | 93.9 |
| INTS11 (integrator complex subunit 11) | 2 | 2.07 | 123 | 1.59 | 90.5 |
| INTS11 (integrator complex subunit 11) | 3 | -0.768 | 66.6 | -0.582 | 86.8 |
| BIRC7 (baculoviral IAP repeat containing 7) | 1 | -0.0121 | 81.6 | 0.226 | 86 |
| BIRC7 (baculoviral IAP repeat containing 7) | 2 | -1.14 | 59.3 | -0.202 | 69.9 |
| BIRC7 (baculoviral IAP repeat containing 7) | 3 | -2.38 | 34.6 | -2.29 | 70.7 |
| POLK (DNA polymerase kappa) | 1 | -1.22 | 57.5 | -0.671 | 76.7 |
| POLK (DNA polymerase kappa) | 2 | -0.75 | 67 | -0.886 | 94.5 |
| POLK (DNA polymerase kappa) | 3 | 1.3 | 108 | 0.649 | 102 |

Not a retest: entries from further up.
| gene | siRNA no. | total luciferase, z-score | total luciferase, % of control | luciferase per cell, z-score | viable cells, % of control |
| --- | --- | --- | --- | --- | --- |
| ECE2 (endothelin converting enzyme 2) | 5 | -0.297 | 76 | -0.263 | 91 |
| ECE2 (endothelin converting enzyme 2) | 6 | -2.71 | 28 | -3.72 | 83.4 |
| USF1 (upstream transcription factor 1) | 1 | -0.929 | 63.4 | -0.897 | 89.7 |
| USF1 (upstream transcription factor 1) | 2 | -1.04 | 61.2 | -1.47 | 101 |
| USF1 (upstream transcription factor 1) | 3 | 0.931 | 100 | 1.53 | 74.9 |
